Test results: PMC5001636
No constants are given. Whether binding was seen depends on the method and setting. For part of these data: In cells and extracts the contact can be indirect. Some binding calls cover weakened binding; strength is not graded here. Sequences can lack the tags named with a protein. Blank lines part the entries; values can stand above or below the molecule they belong to.

The chains behind the UniProt entries cited, without tags or fusion partners.
UniProt P11978: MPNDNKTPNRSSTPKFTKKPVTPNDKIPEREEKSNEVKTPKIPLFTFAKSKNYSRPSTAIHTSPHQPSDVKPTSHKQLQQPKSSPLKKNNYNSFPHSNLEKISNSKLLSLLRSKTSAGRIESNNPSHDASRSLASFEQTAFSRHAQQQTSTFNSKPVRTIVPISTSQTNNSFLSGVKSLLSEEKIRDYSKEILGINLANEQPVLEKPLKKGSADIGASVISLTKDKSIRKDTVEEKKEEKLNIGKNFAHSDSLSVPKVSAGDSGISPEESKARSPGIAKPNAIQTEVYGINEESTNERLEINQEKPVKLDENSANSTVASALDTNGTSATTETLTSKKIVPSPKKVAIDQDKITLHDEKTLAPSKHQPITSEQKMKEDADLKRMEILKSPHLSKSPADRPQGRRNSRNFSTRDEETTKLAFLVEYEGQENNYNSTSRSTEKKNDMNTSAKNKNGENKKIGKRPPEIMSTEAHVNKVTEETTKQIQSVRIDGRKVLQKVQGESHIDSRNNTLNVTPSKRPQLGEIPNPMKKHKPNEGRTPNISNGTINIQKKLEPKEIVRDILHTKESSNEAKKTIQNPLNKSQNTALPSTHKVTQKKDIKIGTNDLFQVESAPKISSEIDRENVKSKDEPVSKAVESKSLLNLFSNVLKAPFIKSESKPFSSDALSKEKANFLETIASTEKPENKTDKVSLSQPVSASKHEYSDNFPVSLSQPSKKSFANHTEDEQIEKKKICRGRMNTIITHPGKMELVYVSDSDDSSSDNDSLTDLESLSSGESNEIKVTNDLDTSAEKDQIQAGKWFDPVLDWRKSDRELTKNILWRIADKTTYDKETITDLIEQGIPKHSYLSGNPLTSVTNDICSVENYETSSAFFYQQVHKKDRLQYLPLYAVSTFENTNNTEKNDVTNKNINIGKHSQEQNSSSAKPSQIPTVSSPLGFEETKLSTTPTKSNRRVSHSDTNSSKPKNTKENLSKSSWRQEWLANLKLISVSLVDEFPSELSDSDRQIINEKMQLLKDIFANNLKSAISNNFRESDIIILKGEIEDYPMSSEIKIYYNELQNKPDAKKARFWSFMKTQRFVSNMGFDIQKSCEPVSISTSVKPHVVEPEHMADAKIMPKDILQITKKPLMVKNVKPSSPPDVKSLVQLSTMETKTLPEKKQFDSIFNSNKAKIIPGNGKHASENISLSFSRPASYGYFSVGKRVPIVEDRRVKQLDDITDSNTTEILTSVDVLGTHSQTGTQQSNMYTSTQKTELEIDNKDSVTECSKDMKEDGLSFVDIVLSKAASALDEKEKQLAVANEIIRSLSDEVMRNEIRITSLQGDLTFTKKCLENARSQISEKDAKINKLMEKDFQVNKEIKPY

Tests used:
[1] = target: T1, Smc6^FLAG (S. cerevisiae) (UniProt Q12749); assay: co-IP; Smc6^FLAG immunoprecipitated, blot for Sir4^Myc; stationary phase cultures, no chromatin spin, wash buffer with 250 mM NaCl
T1 sequence: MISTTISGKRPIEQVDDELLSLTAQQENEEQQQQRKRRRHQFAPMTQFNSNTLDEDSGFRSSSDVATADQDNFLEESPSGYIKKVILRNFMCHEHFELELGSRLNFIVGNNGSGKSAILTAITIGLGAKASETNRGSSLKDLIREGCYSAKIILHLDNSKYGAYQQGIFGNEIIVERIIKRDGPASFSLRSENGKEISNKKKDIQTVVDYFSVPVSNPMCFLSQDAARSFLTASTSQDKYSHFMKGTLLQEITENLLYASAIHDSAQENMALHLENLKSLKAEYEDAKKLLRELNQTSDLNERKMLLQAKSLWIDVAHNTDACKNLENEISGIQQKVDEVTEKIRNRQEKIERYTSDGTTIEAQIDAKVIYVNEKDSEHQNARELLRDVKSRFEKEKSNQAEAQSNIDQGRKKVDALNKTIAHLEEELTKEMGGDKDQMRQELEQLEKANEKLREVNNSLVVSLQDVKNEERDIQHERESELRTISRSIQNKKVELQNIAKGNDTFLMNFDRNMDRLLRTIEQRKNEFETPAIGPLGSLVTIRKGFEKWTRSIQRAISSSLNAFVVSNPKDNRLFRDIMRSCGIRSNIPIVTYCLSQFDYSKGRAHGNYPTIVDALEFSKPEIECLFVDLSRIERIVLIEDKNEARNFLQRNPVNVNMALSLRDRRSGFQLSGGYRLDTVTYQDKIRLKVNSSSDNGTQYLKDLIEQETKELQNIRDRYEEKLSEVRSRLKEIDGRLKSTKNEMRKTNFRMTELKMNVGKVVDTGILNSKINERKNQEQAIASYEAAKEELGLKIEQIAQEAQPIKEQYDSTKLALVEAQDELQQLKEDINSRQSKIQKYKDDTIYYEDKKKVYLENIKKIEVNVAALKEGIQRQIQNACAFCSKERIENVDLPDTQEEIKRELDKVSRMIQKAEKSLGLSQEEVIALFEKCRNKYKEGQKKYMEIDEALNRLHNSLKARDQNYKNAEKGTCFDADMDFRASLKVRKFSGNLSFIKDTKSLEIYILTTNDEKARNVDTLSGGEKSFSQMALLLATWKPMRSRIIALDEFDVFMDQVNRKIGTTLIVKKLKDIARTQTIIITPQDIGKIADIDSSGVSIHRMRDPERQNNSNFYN

[2] = target: T2, Nse3^LexA full-length (S. cerevisiae) (UniProt Q05541); assay: two-hybrid; LexA bait (pEG202), prey (pJG4-6), LacZ reporter pSH18034 in JC1280; 2% galactose or glucose for 6 hours at 30°C; β-galactosidase activity in permeabilized cells
T2 sequence: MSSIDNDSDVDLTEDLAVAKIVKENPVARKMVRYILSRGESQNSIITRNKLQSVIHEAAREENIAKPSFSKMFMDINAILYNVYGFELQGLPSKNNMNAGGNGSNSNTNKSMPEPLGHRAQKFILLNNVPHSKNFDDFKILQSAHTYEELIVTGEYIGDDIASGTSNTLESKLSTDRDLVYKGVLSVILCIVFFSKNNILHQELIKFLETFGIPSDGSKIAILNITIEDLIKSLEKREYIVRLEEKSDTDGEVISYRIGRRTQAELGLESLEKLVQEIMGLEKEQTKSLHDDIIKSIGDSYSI

Sir4^Myc (S. cerevisiae) = Sir4^Myc (S. cerevisiae) (UniProt P11978); assay: co-IP; Sir4^Myc precipitated with Myc antibody-coupled beads from lysates clarified at 13200 rpm; wash buffer with 250 mM LiCl; blot for Nse3^HA

binding [1]: binds
Molecule: Sir4^Myc (from UniProt P11978 1-1358)

binding [2]: binds
B1: Rif2^HA (two-hybrid prey) (protein, UniProt Q06208 1-395)
chain: MEHVDSDFAPIRRSKKVVDSDKIVKAISDDLEQKNFTVLRKLNLVPIKKSVSSPKVCKPSPVKERVDHVFYQKFKSMALQELGTNYLSISYVPSLSKFLSKNLRSMKNCIVFFDKVEHIHQYAGIDRAVSETLSLVDINVVIIEMNDYLMKEGIQSSKSKECIESMGQASYSGQLDFEASEKPSNHTSDLMMMVMRKINNDESIDHIVYFKFEQLDKLSTSTIIEPSKLTEFINVLSVLEKSNNIAFKVLIYSNNVSISSLLSTSLKKKLNTKYTVFEMPILTCAQEQEYLKKMIKFTFDSGSKLLQSYNSLVTCQLNNKESNLAIFFEFLKVFPHPFTYLFNAYTEIIVQSRTFDELLDKIRNRLTIKNYPHSAYNFKKNQRLPLKLTRKVHDR

binding (Sir4^Myc (S. cerevisiae)): binds
B2: Nse3^HA (protein, UniProt Q05541 1-303)
chain: MSSIDNDSDVDLTEDLAVAKIVKENPVARKMVRYILSRGESQNSIITRNKLQSVIHEAAREENIAKPSFSKMFMDINAILYNVYGFELQGLPSKNNMNAGGNGSNSNTNKSMPEPLGHRAQKFILLNNVPHSKNFDDFKILQSAHTYEELIVTGEYIGDDIASGTSNTLESKLSTDRDLVYKGVLSVILCIVFFSKNNILHQELIKFLETFGIPSDGSKIAILNITIEDLIKSLEKREYIVRLEEKSDTDGEVISYRIGRRTQAELGLESLEKLVQEIMGLEKEQTKSLHDDIIKSIGDSYSI
